Experimental data: PubChem BioAssay AID1259263 (Sanger Institute, 2017)
Test: 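Recheck kinase screen hits for synergy with three targeted cancer drugs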 (follow-up of hits). System: SW1463 human colorectal cancer cell line. Knock-down reagent: single siRNA against human genes. Challenge: anchor drugs BYL719 at 1 µM, cetuximab at 5 µg/ml or trametinib at 10 nM, or DMSO vehicle, added one day after siRNA transfection. Read-out: 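Replicate-mean survival scaled to a non-targeting siRNA control, and a synergy score of actual versus predicted viability drop when siRNA and drug act together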. Reading the numbers: synergy score with trametinib and synergy score with BYL719 and synergy score with cetuximab: higher = stronger synthetic lethal effect with the drug; viability with trametinib: higher = more cells survive knock-down plus drug; viability with vehicle only: higher = more cells survive the knock-down. Active means: 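a synergy score over 0.10 with any anchor drug (BYL719, cetuximab or trametinib) marks the siRNA active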. Calls: active = synergy with at least one drug; inactive = no synergy with any drug.
In all, the deposit lists 160 reagents; below is a random part of them. Of all reagents, 101 (63%) were called active. 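Drug doses chosen to kill few cells alone; each row is one siRNA, and a gene counts as confirmed only if two or more siRNAs show synergy.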 Reagents against one gene are numbered here. Viability is capped at 1. Not given: the amount of reagent, the time to read-out.

gene	reagent	synergy score with trametinib	synergy score with BYL719	synergy score with cetuximab	viability with trametinib (fraction of control)	viability with vehicle only (fraction of control)	Outcome
BRAF (B-Raf proto-oncogene, serine/threonine kinase)	1	0.0262	0.000507	-0.119	0.478	0.678	inactive
BRAF (B-Raf proto-oncogene, serine/threonine kinase)	2	0.413	0.214	0.235	0.229	0.864	active
BRAF (B-Raf proto-oncogene, serine/threonine kinase)	3	0.234	0.027	-0.227	0.303	0.723	active
BRAF (B-Raf proto-oncogene, serine/threonine kinase)	4	0.162	-0.0441	-0.0801	0.303	0.626	active
HUNK (hormonally up-regulated Neu-associated kinase)	1	0.207	0.16	0.0822	0.452	0.886	active
HUNK (hormonally up-regulated Neu-associated kinase)	2	0.278	0.00479	-0.0339	0.259	0.723	active
HUNK (hormonally up-regulated Neu-associated kinase)	3	0.221	0.0978	0.178	0.47	0.93	active
HUNK (hormonally up-regulated Neu-associated kinase)	4	0.17	0.0398	0.18	0.389	0.752	active

The list goes on; the last 2 above are carried over.
gene	reagent	synergy score with trametinib	synergy score with BYL719	synergy score with cetuximab	viability with trametinib (fraction of control)	viability with vehicle only (fraction of control)	Outcome
HUNK (hormonally up-regulated Neu-associated kinase)	3	0.221	0.0978	0.178	0.47	0.93	active
HUNK (hormonally up-regulated Neu-associated kinase)	4	0.17	0.0398	0.18	0.389	0.752	active
PFKFB3 (6-phosphofructo-2-kinase/fructose-2,6-biphosphatase 3)	1	0.0741	-0.12	0.0891	0.57	0.867	inactive
PFKFB3 (6-phosphofructo-2-kinase/fructose-2,6-biphosphatase 3)	2	0.149	-0.0226	0.0498	0.363	0.689	active
PFKFB3 (6-phosphofructo-2-kinase/fructose-2,6-biphosphatase 3)	3	0.184	-0.0678	-0.102	0.559	1	active
PFKFB3 (6-phosphofructo-2-kinase/fructose-2,6-biphosphatase 3)	4	0.0951	-0.097	-0.108	0.559	0.881	inactive
CSNK2A2 (casein kinase 2 alpha 2)	1	-0.0144	-0.09	-0.111	0.689	0.908	inactive
CSNK2A2 (casein kinase 2 alpha 2)	2	-0.0932	-0.283	-0.0719	0.382	0.389	inactive
CSNK2A2 (casein kinase 2 alpha 2)	3	0.0339	-0.0949	-0.281	0.34	0.504	inactive
CSNK2A2 (casein kinase 2 alpha 2)	4	0.231	-0.0249	0.0902	0.11	0.459	active
MAP3K8 (mitogen-activated protein kinase kinase kinase 8)	1	-0.0278	0.19	-0.00828	0.645	0.83	
MAP3K8 (mitogen-activated protein kinase kinase kinase 8)	2	0.128	0.228	0.135	0.448	0.775	active
MAP3K8 (mitogen-activated protein kinase kinase kinase 8)	3	0.187	0.135	-0.0413	0.507	0.934	active
MAP3K8 (mitogen-activated protein kinase kinase kinase 8)	4	0.26	0.0554	0.186	0.448	0.953	active
